Variants at the floor of the assay are shown more often than the library holds them.
Assays:
biotinyl-Phe-oxazolone = experiment: self-aminoacylation, catalytic enhancement (BFO) (fold over background); higher = more active; k-Seq, kA / k0A0; sequences stand for … in GGGAAUGGAUCCACAUCUACGAAUUC…UUCACUGCAGACUUGACGAAGCUG
How it was run: (§1)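 Working in 50 μL HEPES/NaCl/KCl/MgCl2/CaCl2 buffer with 5% acetonitrile at pH 6.9–7.0, mutagenized RNA pools (0.43 μM; 21-nt variable region) were reacted with 2–1250 μM of each biotinyl-aminoacyl-oxazolone for 90 minutes at room temperature. Streptavidin capture followed, with quantification by triplicate qPCR and Illumina sequencing. Catalytic enhancement is reported as median kA over the uncatalyzed rate, the low-activity peak of a bimodal Gaussian fit to the data.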

biotinyl-Ile-oxazolone = experiment: self-aminoacylation, catalytic enhancement (BIO) (fold over background); higher = more active; k-Seq, kA / k0A0; sequences stand for … in GGGAAUGGAUCCACAUCUACGAAUUC…UUCACUGCAGACUUGACGAAGCUG
How it was run: as §1

biotinyl-Leu-oxazolone = experiment: self-aminoacylation, catalytic enhancement (BLO) (fold over background); higher = more active; k-Seq, kA / k0A0; sequences stand for … in GGGAAUGGAUCCACAUCUACGAAUUC…UUCACUGCAGACUUGACGAAGCUG
How it was run: as §1

biotinyl-Trp-oxazolone = experiment: self-aminoacylation, catalytic enhancement (BWO) (fold over background); higher = more active; k-Seq, kA / k0A0; sequences stand for … in GGGAAUGGAUCCACAUCUACGAAUUC…UUCACUGCAGACUUGACGAAGCUG
How it was run: as §1

biotinyl-Met-oxazolone = experiment: self-aminoacylation, catalytic enhancement (BMO) (fold over background); higher = more active; k-Seq, kA / k0A0; sequences stand for … in GGGAAUGGAUCCACAUCUACGAAUUC…UUCACUGCAGACUUGACGAAGCUG
How it was run: as §1

biotinyl-Val-oxazolone = experiment: self-aminoacylation, catalytic enhancement (BVO) (fold over background); higher = more active; k-Seq, kA / k0A0; sequences stand for … in GGGAAUGGAUCCACAUCUACGAAUUC…UUCACUGCAGACUUGACGAAGCUG
How it was run: as §1

Sequence | self-aminoacylation (biotinyl-Phe-oxazolone) | self-aminoacylation (biotinyl-Ile-oxazolone) | self-aminoacylation (biotinyl-Leu-oxazolone) | self-aminoacylation (biotinyl-Trp-oxazolone) | self-aminoacylation (biotinyl-Met-oxazolone) | self-aminoacylation (biotinyl-Val-oxazolone)
AAAUUUGCUAAUAGACGCAAG [Fam3.1 aminoacylation ribozyme variant] | 1.33 | 0.953 | 0.838 | 0.793 | 0.766 | 1.08
AAAUUUGCUAAUCGUCGCAAG [Fam3.1 aminoacylation ribozyme variant] | 1.51 | 1.76 | 1.79 | 1.54 | 1.65 | 1.89
AAGCUUGCUAAAAGUCGCAAG [Fam3.1 aminoacylation ribozyme variant] | 5.12 | 2.16 | 3.1 | 3.43 | 3.31 | 1.79
AAGCUUGCUAAUAGUCGCAUG [Fam3.1 aminoacylation ribozyme variant] | 3.98 | 1.8 | 2.07 | 1.87 | 1.74 | 1.55
AAGGUUGCUAAUAGUCGCAAA [Fam3.1 aminoacylation ribozyme variant] | 1.51 | 1.86 | 1.63 | 1.4 | 1.28 | 1.42
AAGGUUGCUAAUAGUCGCAAC [Fam3.1 aminoacylation ribozyme variant] | 1.18 | 1.44 | 1.22 | 1.52 | 1.94 | 1.23
AAGGUUUCUAAUAGUCGCAAG [Fam3.1 aminoacylation ribozyme variant] | 2.65 | 1.64 | 1.05 | 1.6 | 1.04 | 1.53
AAGUAUGCUAAUAGGCGCAAG [Fam3.1 aminoacylation ribozyme variant] | 0.856 | 0.992 | 1.08 | 1.58 | 0.748 | 1.18
AAGUCUGCUAAUAAUCGCAAG [Fam3.1 aminoacylation ribozyme variant] | 1.49 | 0.782 | 0.869 | 1.08 | 0.9 | 0.789
AAGUCUGCUAAUACUCGCAAG [Fam3.1 aminoacylation ribozyme variant] | 0.977 | 0.775 | 0.835 | 0.987 | 0.838 | 0.931
AAGUCUGCUAAUAGUUGCAAG [Fam3.1 aminoacylation ribozyme variant] | 1.19 | 0.878 | 1.22 | 1.27 | 1.4 | 0.748
AAGUCUGCUCAUAGUCGCAAG [Fam3.1 aminoacylation ribozyme variant] | 8.38 | 1.16 | 1.08 | 4.23 | 1.29 | 1.18
AAGUGUGCUAAUAGUCGCAGG [Fam3.1 aminoacylation ribozyme variant] | 1.68 | 1.92 | 1.98 | – | 1.94 | 1.6
AAGUGUGCUAAUAGUCGGAAG [Fam3.1 aminoacylation ribozyme variant] | 11 | 1.47 | 1.31 | 3.96 | 1.4 | 1.26
AAGUGUGCUAAUAGUCUCAAG [Fam3.1 aminoacylation ribozyme variant] | 8.7 | 1.26 | 1.44 | 2.73 | 1.4 | 1.62
AAGUGUGCUAAUAGUUGCAAG [Fam3.1 aminoacylation ribozyme variant] | 1.84 | 1.38 | 1.18 | 0.866 | 1.7 | 1.16
AAGUGUGCUAGUAGUCGCAAG [Fam3.1 aminoacylation ribozyme variant] | 0.87 | 0.86 | 0.868 | 0.683 | 0.889 | 1.15
AAGUGUGCUUAUAGUCGCAAG [Fam3.1 aminoacylation ribozyme variant] | 1.25 | 1.33 | 1.2 | 1.79 | 1.21 | 1.24
AAGUUAACUAAUAGUCGCAAG [Fam3.1 aminoacylation ribozyme variant] | 1.77 | 1.63 | 1.49 | 1.2 | 1.21 | 1.55
AAGUUAGCUAAUACUCGCAAG [Fam3.1 aminoacylation ribozyme variant] | 1.48 | 1.6 | 1.49 | 1.51 | 1.05 | 1.5
AAGUUCGCUAAAAGUCGCAAG [Fam3.1 aminoacylation ribozyme variant] | 4.4 | 2.42 | 2.68 | 3.39 | 2.51 | 1.67
AAGUUCGCUAAUAGUCCCAAG [Fam3.1 aminoacylation ribozyme variant] | 1.41 | 1.41 | 0.899 | 0.795 | 1.1 | 0.716
AAGUUGACUAAUAGUCGCAAG [Fam3.1 aminoacylation ribozyme variant] | 1.5 | 1.18 | 0.935 | 1.19 | 0.839 | 0.949
AAGUUUACUAAUAGUCCCAAG [Fam3.1 aminoacylation ribozyme variant] | 1.58 | 1.08 | 1.11 | 0.872 | 0.942 | 0.716
AAGUUUACUAAUAGUGGCAAG [Fam3.1 aminoacylation ribozyme variant] | 0.824 | 0.68 | 0.538 | 0.574 | 0.844 | 0.676
AAGUUUGAUAAUAGUCGCCAG [Fam3.1 aminoacylation ribozyme variant] | 0.755 | 0.762 | 0.844 | 0.785 | 0.898 | 0.74

Sequence | self-aminoacylation (biotinyl-Phe-oxazolone) | self-aminoacylation (biotinyl-Ile-oxazolone) | self-aminoacylation (biotinyl-Leu-oxazolone) | self-aminoacylation (biotinyl-Trp-oxazolone) | self-aminoacylation (biotinyl-Met-oxazolone) | self-aminoacylation (biotinyl-Val-oxazolone)
AAGUUUGCAAAUAGUCCCAAG [Fam3.1 aminoacylation ribozyme variant] | 0.855 | 1.07 | 0.816 | 0.867 | 0.774 | 0.876
AAGUUUGCCAACAGUCGCAAG [Fam3.1 aminoacylation ribozyme variant] | 1.33 | 1.52 | 1.38 | 1.63 | 1.15 | 1.13
AAGUUUGCCAAUAAUCGCAAG [Fam3.1 aminoacylation ribozyme variant] | 1.15 | 0.881 | 0.557 | 0.881 | 0.6 | 0.95
AAGUUUGCCAAUAGUCGCACG [Fam3.1 aminoacylation ribozyme variant] | 1.54 | 1.33 | – | 1.51 | – | 1.6
AAGUUUGCCAUUAGUCGCAAG [Fam3.1 aminoacylation ribozyme variant] | 1.84 | 0.922 | 0.869 | 1.11 | 1.45 | 0.936
AAGUUUGCCGAUAGUCGCAAG [Fam3.1 aminoacylation ribozyme variant] | 1.62 | 1.44 | 1.51 | 1.66 | 1.46 | 1.32
AAGUUUGCGAACAGUCGCAAG [Fam3.1 aminoacylation ribozyme variant] | 1.19 | 1.13 | 0.729 | 1.32 | 1.43 | 0.858
AAGUUUGCGAAUAGGCGCAAG [Fam3.1 aminoacylation ribozyme variant] | 9.76 | 1.15 | 1.1 | 1.27 | 1.07 | 1.11
AAGUUUGCGAAUAGUCGCACG [Fam3.1 aminoacylation ribozyme variant] | 0.545 | 1.1 | 1.34 | 0.865 | 0.942 | 1.24
AAGUUUGCUAAAAGGCGCAAG [Fam3.1 aminoacylation ribozyme variant] | 0.904 | 0.664 | 0.673 | 0.576 | 0.521 | 0.563
AAGUUUGCUAAAAGUCCCAAG [Fam3.1 aminoacylation ribozyme variant] | 1.43 | 1.04 | 0.866 | 1.05 | 0.96 | 0.834
AAGUUUGCUAAAAGUCGCCAG [Fam3.1 aminoacylation ribozyme variant] | 1.16 | 1.49 | 1.51 | 2.25 | 1.72 | 1.16
AAGUUUGCUAAAAGUGGCAAG [Fam3.1 aminoacylation ribozyme variant] | 0.961 | 0.734 | 0.849 | 0.736 | 0.851 | 0.726
AAGUUUGCUAAUAUUCCCAAG [Fam3.1 aminoacylation ribozyme variant] | 0.7 | 1.43 | 1.21 | – | 1.44 | 1.26
AUGACCCUGGUCAUCGAGUCA [Fam2.1 aminoacylation ribozyme variant] | 1.21 | 1.17 | 1.45 | – | 1.35 | 1.13
AUUACCGUGGUCAUCGAGCGA [Fam2.1 aminoacylation ribozyme variant] | 1.22 | 1.73 | 1.99 | – | 1.74 | 1.95
AUUCACCUAGGUUAUCAGGUG [Fam2.2 aminoacylation ribozyme variant] | 1.4 | 1.53 | 1.74 | – | 1.63 | 1.48
AUUCCCCUGGUCAUCGAGUGG [Fam2.1 aminoacylation ribozyme variant] | 1.69 | – | – | – | – | –
CCACACGUCAAGCAAUCCGUC [Fam1B.1 aminoacylation ribozyme variant] | 0.916 | 1.51 | 1.34 | – | 1.15 | –
CCACACUUCAAGCAAACGGGC [Fam1B.1 aminoacylation ribozyme variant] | 0.68 | 1.6 | 1.58 | 1.72 | 1.15 | –
CCACACUUCAAGCCAUCCGUC [Fam1B.1 aminoacylation ribozyme variant] | 1.12 | – | 1.86 | 1.7 | 1.77 | 1.26
CCACCCUUCAAGCAUUCGGUC [Fam1B.1 aminoacylation ribozyme variant] | 1.1 | 1.72 | 1.9 | 1.91 | 1.97 | –
CCACCCUUCAAGCCAUCGGUC [Fam1B.1 aminoacylation ribozyme variant] | 0.968 | 1.53 | 1.56 | – | 1.48 | 1.86
CUACGUCAAACAAUCGGUGUG [Fam1A.1 aminoacylation ribozyme variant] | 1.01 | 1.22 | – | 1.77 | 1.66 | 1.52
GUACGUCAAACAAUCGGUCUG [Fam1A.1 aminoacylation ribozyme variant] | 1.79 | 1.61 | 1.51 | – | 1.44 | 1.71
UCACACUUCAAGCCAUCGGUC [Fam1B.1 aminoacylation ribozyme variant] | – | 1.01 | 1.1 | 0.854 | 1.08 | 1.24

Source: the supplement of paper PMC9233669
